Test results from article PMC5503622.
Positions count from the first letter of the chain named. These are yes or no findings as the source states them, for the method shown. Binding seen in cells or lysates may run through a third protein. Some entries that bind do so weakly or less than the wild type. Sequences can lack the tags named with a protein.

Amino acid sequences for entries named in this document (tags omitted).
UniProt P40763: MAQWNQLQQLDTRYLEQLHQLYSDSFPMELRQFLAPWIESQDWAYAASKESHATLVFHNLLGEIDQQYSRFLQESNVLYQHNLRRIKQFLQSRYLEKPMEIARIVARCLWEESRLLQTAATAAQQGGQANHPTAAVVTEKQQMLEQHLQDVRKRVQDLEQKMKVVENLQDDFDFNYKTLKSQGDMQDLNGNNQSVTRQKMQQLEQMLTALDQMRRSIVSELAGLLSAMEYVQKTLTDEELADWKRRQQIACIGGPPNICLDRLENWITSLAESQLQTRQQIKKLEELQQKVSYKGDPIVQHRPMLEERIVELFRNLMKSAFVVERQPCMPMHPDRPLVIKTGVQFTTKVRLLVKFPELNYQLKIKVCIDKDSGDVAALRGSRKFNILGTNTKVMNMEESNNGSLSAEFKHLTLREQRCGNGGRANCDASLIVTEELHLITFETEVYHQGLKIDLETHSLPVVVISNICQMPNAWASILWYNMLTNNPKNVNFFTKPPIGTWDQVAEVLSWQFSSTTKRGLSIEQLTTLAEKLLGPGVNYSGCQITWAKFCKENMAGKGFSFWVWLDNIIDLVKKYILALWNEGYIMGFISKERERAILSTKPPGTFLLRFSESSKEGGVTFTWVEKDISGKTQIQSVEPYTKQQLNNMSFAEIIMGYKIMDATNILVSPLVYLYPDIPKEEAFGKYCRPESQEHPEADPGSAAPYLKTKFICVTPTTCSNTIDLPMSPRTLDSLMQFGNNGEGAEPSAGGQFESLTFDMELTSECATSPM

Assays:
[1] = molecular target: T1, Bladder cancer-associated protein (BLCAP), wild type, 3×FLAG-tagged (human) (UniProt P62952); test: co-IP; 293T cells co-transfected with 3×FLAG-BLCAP and HA-STAT3, lysed 24 h later; lysate immunoprecipitated with anti-FLAG antibody plus protein G magnetic beads, 20 minutes at room temperature, six washes; blot with anti-HA; normal mouse IgG as control
T1 sequence: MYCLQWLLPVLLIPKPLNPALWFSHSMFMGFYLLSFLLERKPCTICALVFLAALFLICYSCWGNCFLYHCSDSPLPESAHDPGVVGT

[2] = molecular target: T1, Bladder cancer-associated protein (BLCAP), wild type, 3×FLAG-tagged (human); test: co-IP; 293T or HeLa cells transfected with 3×FLAG-tagged BLCAP (wild type or edited), lysed 24 h later; lysate immunoprecipitated with anti-FLAG antibody plus protein G magnetic beads, 20 minutes at room temperature, six washes; blot for endogenous STAT3; normal mouse IgG as control
[3] = molecular target: T2, Edited BLCAP with A>G at site 5 (CCLQ-FLAG) (human) (UniProt P62952); test: as above
T2 sequence: T1 sequence with Y2C

Substance | binding [1] | binding [2] | binding [3]
Signal transducer and activator of transcription 3 (STAT3), HA-tagged (from UniProt P40763 1-770) | binds |  | 
Signal transducer and activator of transcription 3 (STAT3), endogenous (from UniProt P40763 1-770) |  | binds | binds
